Measured values as given in the supplement of paper PMC10849652.
This is one part of the list.

Chains of the proteins cited; added tags and fusions are not shown. Lines headed by an entry give the natural chain unless they say otherwise; changes in a name come on top.
UniProt P78347: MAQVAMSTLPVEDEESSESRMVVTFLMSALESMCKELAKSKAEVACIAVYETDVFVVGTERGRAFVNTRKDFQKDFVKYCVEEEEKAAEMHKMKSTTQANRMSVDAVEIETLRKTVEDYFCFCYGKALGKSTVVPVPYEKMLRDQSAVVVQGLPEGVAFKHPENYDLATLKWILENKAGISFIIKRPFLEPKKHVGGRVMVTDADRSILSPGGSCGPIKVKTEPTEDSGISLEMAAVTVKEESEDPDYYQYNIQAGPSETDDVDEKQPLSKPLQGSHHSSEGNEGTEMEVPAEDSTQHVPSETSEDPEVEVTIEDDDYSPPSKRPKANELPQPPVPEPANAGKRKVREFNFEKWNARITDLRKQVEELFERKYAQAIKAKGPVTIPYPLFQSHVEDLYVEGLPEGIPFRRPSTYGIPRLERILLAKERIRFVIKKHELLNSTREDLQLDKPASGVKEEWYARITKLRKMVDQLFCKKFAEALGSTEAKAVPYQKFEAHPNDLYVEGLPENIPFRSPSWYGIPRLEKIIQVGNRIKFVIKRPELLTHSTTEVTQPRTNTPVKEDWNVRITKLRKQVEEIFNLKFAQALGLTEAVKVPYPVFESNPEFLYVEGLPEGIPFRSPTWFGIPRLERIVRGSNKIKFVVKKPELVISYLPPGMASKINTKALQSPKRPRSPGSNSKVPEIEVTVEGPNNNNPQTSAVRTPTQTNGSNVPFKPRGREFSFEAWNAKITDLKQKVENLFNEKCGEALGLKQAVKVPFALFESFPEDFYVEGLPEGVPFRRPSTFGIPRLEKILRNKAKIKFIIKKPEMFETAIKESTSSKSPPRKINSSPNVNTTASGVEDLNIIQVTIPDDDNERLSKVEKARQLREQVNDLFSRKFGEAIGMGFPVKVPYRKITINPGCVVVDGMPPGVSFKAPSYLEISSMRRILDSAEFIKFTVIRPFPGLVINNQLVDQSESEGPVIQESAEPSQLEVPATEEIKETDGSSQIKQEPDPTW
UniProt Q14687: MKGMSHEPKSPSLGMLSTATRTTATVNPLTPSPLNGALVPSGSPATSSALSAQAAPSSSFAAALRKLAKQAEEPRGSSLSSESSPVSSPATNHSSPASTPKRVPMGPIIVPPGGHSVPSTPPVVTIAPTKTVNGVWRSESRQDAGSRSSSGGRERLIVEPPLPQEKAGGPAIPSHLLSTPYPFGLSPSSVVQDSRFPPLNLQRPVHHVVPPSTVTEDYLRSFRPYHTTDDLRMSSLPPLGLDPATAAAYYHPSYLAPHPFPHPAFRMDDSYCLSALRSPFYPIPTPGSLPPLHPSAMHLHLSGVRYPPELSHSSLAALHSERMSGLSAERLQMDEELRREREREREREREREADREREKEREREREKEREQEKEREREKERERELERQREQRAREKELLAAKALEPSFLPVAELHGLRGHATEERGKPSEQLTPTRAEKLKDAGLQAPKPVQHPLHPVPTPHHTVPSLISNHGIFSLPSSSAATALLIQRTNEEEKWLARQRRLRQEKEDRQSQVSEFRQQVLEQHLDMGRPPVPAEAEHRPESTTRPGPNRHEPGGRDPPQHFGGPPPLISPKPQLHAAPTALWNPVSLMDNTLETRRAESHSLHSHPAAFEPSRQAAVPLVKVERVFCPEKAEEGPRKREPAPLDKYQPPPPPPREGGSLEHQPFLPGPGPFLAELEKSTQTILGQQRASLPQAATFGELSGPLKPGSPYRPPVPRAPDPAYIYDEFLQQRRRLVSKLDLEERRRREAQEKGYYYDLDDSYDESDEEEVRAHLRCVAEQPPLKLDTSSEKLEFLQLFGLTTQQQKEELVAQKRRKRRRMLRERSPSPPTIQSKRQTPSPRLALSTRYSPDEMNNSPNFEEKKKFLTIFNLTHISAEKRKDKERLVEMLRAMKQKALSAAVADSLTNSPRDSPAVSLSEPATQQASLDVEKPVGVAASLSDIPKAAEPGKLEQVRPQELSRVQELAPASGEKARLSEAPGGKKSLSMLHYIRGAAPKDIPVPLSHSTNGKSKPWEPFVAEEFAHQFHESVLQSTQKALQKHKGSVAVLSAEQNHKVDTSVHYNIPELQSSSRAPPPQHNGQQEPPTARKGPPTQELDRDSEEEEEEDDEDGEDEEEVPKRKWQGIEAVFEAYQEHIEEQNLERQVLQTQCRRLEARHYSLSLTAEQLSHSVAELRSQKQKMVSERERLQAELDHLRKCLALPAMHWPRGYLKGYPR
UniProt Q969F1: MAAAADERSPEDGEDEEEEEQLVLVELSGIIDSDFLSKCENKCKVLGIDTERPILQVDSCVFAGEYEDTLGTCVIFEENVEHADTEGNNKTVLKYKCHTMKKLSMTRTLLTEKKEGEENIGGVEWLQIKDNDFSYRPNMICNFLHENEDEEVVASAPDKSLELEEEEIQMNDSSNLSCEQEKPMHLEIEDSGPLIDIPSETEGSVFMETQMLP
UniProt Q8WW33: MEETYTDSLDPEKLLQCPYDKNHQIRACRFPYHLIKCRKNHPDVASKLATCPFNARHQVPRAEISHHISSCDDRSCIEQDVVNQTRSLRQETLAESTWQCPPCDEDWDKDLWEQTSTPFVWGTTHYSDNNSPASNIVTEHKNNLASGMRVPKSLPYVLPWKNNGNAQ
UniProt Q9UKN8: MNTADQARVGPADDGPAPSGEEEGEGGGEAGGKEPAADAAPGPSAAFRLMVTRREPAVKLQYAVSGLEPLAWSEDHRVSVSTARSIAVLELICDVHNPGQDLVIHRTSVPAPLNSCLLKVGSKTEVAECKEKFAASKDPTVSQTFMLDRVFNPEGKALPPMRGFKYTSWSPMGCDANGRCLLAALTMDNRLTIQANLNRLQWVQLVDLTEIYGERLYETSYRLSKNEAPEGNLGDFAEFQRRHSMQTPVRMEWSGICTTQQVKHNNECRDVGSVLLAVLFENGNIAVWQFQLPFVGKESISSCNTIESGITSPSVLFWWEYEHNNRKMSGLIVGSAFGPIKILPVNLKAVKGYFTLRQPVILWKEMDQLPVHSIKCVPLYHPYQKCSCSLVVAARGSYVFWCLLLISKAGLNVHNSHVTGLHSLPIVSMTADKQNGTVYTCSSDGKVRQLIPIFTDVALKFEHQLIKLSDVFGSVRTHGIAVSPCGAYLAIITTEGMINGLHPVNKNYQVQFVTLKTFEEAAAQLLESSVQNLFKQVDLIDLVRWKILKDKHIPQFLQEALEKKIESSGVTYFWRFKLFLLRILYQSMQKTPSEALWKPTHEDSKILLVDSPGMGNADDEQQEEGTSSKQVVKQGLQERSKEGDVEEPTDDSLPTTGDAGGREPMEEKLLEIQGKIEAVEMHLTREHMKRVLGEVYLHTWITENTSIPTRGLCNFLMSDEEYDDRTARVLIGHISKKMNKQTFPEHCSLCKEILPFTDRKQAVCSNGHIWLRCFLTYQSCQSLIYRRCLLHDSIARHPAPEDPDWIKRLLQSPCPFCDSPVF
UniProt O14929: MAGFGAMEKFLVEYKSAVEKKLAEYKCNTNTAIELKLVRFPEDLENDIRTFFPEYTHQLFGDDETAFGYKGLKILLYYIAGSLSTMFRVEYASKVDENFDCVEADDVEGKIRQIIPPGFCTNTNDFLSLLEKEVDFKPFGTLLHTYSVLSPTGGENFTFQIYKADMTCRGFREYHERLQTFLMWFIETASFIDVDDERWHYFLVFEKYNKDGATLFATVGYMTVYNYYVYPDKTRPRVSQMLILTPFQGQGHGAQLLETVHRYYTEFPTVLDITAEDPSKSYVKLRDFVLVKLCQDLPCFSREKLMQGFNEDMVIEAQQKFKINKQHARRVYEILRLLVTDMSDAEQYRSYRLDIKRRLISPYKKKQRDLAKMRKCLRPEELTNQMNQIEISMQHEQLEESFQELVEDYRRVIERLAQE
UniProt Q9BY41: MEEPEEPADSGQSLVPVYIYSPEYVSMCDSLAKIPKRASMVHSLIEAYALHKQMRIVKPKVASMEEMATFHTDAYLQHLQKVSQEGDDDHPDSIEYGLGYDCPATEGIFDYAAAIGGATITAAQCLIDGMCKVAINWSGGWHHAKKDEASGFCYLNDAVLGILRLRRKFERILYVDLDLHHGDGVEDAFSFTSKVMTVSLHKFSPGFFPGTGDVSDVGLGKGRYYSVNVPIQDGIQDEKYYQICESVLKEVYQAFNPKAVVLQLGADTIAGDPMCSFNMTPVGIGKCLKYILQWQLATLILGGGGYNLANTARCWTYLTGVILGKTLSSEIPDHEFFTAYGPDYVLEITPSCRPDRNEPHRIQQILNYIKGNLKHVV
UniProt P02724: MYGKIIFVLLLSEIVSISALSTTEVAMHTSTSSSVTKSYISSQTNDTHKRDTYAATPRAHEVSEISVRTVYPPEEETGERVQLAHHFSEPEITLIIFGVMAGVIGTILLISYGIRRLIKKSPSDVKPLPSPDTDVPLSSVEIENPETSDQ
UniProt P29084: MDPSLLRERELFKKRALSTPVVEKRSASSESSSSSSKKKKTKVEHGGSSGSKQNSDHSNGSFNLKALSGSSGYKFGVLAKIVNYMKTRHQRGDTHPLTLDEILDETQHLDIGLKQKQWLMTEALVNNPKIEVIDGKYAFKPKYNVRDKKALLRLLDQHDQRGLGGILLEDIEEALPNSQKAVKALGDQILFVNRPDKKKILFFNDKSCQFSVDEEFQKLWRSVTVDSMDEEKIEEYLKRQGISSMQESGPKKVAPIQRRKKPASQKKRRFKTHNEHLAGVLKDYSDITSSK
UniProt P49840: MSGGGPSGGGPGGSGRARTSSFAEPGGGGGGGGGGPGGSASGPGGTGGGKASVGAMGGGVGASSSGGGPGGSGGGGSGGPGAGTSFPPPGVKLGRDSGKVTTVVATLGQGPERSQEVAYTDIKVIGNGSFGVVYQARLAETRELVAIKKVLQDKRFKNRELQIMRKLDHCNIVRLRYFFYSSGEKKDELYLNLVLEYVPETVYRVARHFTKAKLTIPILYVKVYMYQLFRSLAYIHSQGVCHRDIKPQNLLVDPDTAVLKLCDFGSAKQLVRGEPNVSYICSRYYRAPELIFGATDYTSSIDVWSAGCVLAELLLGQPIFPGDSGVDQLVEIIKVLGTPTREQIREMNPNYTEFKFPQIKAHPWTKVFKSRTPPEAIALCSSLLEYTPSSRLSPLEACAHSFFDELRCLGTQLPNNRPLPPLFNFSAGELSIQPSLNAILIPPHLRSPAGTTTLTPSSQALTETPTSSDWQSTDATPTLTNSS
UniProt O75367, whole entry, looked up: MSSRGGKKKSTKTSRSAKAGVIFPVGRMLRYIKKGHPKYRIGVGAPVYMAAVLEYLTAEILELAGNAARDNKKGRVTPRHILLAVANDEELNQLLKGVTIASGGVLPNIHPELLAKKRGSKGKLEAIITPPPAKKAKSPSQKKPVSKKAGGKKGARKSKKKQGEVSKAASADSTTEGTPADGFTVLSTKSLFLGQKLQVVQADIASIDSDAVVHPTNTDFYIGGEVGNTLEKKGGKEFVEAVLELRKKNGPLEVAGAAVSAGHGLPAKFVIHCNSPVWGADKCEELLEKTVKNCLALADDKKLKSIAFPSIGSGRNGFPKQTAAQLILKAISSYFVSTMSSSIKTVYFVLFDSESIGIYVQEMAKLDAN
UniProt Q13889: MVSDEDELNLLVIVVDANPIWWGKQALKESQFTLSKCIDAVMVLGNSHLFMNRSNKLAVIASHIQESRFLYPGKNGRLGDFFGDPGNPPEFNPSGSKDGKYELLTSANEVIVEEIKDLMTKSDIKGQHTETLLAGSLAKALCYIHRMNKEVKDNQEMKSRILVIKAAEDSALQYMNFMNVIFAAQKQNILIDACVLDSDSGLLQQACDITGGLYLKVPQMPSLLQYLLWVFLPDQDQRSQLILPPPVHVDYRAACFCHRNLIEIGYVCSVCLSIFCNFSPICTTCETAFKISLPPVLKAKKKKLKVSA

Assays:
Assay in all cases: log2 fold change, soluble protein after heating vs DMSO (PISA); higher = thermal stabilisation; K562 lysate, 10 uM; active = over 0.2 and 3.5 SD of the protein, either way, in both replicates (recomputed)
lapatinib = compound: CS(=O)(=O)CCNCc1ccc(-c2ccc3ncnc(Nc4ccc(OCc5cccc(F)c5)c(Cl)c4)c3c2)o1 [lapatinib]
Method in brief: (§1)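 K562 pellets were dounce-homogenised in PBS pH 7.4 with 1 mM MgCl2, and the crude extract at 1 mg/mL protein was treated with 10 μM compound for 30 min. Aliquots were heated for 3 min across 48°C-58°C, pooled, and brought to 0.5% NP-40 at 4°C; soluble protein was the supernatant after 21,000xg for 90 min. Soluble protein was quantified by TMTpro 16plex LC-MS/MS with channel sums equalised, and reported as log2 fold change in thermal stability against DMSO controls, with values from duplicates.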

pictilisib = compound: CS(=O)(=O)N1CCN(Cc2cc3nc(-c4cccc5[nH]ncc45)nc(N4CCOCC4)c3s2)CC1 [pictilisib]
Method in brief: as §1

crizotinib = compound: C[C@@H](Oc1cc(-c2cnn(C3CCNCC3)c2)cnc1N)c1c(Cl)ccc(F)c1Cl [crizotinib]
Method in brief: as §1

[1] = compound: C[C@H](C1=CC=C(C=C1)C(=O)NC2=C3C=CNC3=NC=C2)N
Method in brief: as §1

duvelisib = compound: C[C@H](Nc1ncnc2nc[nH]c12)c1cc2cccc(Cl)c2c(=O)n1-c1ccccc1 [duvelisib]
Method in brief: as §1

gandotinib = compound: Cc1cc(Nc2cc(CN3CCOCC3)c3nc(C)c(Cc4ccc(Cl)cc4F)n3n2)n[nH]1 [gandotinib]
Method in brief: as §1

tozasertib = compound: Cc1cc(Nc2cc(N3CCN(C)CC3)nc(Sc3ccc(NC(=O)C4CC4)cc3)n2)n[nH]1 [tozasertib]
Method in brief: as §1

doramapimod = compound: Cc1ccc(-n2nc(C(C)(C)C)cc2NC(=O)Nc2ccc(OCCN3CCOCC3)c3ccccc23)cc1 [doramapimod]
Method in brief: as §1

bafetinib = compound: Cc1ccc(NC(=O)c2ccc(CN3CC[C@H](N(C)C)C3)c(C(F)(F)F)c2)cc1Nc1nccc(-c2cncnc2)n1 [bafetinib]
Method in brief: as §1

[2] = compound: Cc1cccc(CC(=O)N2CCc3c2ccc(-c2cn(C)c4ncnc(N)c24)c3F)n1
Method in brief: as §1

nilotinib = compound: Cc1cn(-c2cc(NC(=O)c3ccc(C)c(Nc4nccc(-c5cccnc5)n4)c3)cc(C(F)(F)F)c2)cn1 [nilotinib]
Method in brief: as §1

[3] = compound: Cc1nc(Nc2n[nH]c3c2CN(C(=O)N[C@H](CN(C)C)c2ccccc2)C3(C)C)c2sccc2n1
Method in brief: as §1

dasatinib = compound: Cc1nc(Nc2ncc(C(=O)Nc3c(C)cccc3Cl)s2)cc(N2CCN(CCO)CC2)n1 [dasatinib]
Method in brief: as §1

[4] = compound: Cc1ncc(-c2ccnc(Nc3ccc(S(C)(=O)=O)cc3)n2)n1C(C)C
Method in brief: as §1

[5] = compound: Cn1cc(-c2ccc3c(c2)CCN3C(=O)Cc2cccc(C(F)(F)F)c2)c2c(N)ncnc21
Method in brief: as §1

quisinostat = compound: Cn1cc(CNCC2CCN(c3ncc(C(=O)NO)cn3)CC2)c2ccccc21 [quisinostat]
Method in brief: as §1

tipifarnib = compound: Cn1cncc1[C@@](N)(c1ccc(Cl)cc1)c1ccc2c(c1)c(-c1cccc(Cl)c1)cc(=O)n2C [tipifarnib]
Method in brief: as §1

[6] = compound: NC(=O)Nc1cc(-c2cccc(F)c2)sc1C(=O)N[C@H]1CCCNC1
Method in brief: as §1

[7] = compound: NC(=O)c1cnc(N[C@@H]2CCCC[C@@H]2N)nc1Nc1cccc(-n2nccn2)c1
Method in brief: as §1

[8] = compound: NC1(c2ccc(-c3nc4ccn5c(=O)[nH]nc5c4cc3-c3ccccc3)cc2)CCC1
Method in brief: as §1

Target | log2 fold change (lapatinib) | log2 fold change (pictilisib) | log2 fold change (crizotinib) | log2 fold change [1] | log2 fold change (duvelisib) | log2 fold change (gandotinib) | log2 fold change (tozasertib) | log2 fold change (doramapimod) | log2 fold change (bafetinib) | log2 fold change [2] | log2 fold change (nilotinib) | log2 fold change [3] | log2 fold change (dasatinib) | log2 fold change [4] | log2 fold change [5] | log2 fold change (quisinostat) | log2 fold change (tipifarnib) | log2 fold change [6] | log2 fold change [7] | log2 fold change [8]
GTF2I (UniProt P78347) | inactive: -0.005 | inactive: -0.011 | inactive: -0.039 | inactive: -0.01 | inactive: 0.016 | inactive: -0.086 | inactive: -0.004 | inactive: 0.018 | inactive: -0.066 | inactive: 0.027 | inactive: 0.001 | inactive: 0.002 | inactive: -0.042 | inactive: -0.011 | inactive: 0.035 | inactive: -0.006 | inactive: -0.008 | inactive: 0.034 | inactive: 0 | inactive: -0.014
GSE1 (UniProt Q14687) | inactive: 0.006 | inactive: -0.032 | inactive: -0.014 | inactive: -0.073 | inactive: -0.015 | inactive: 0.011 | inactive: 0.008 | inactive: -0.019 | inactive: -0.006 | inactive: 0.051 | inactive: -0.017 | inactive: 0.007 | inactive: -0.064 | inactive: 0.036 | inactive: -0.005 | inactive: -0.093 | inactive: -0.02 | inactive: 0.059 | inactive: 0.012 | inactive: 0.029
GTF3C6 (UniProt Q969F1) | inactive: 0.07 | inactive: 0.002 | inactive: -0.007 | inactive: 0.126 | inactive: -0.002 | inactive: -0.035 | inactive: -0.013 | inactive: -0.03 | inactive: 0.223 | inactive: -0.041 | inactive: -0.034 | inactive: 0.014 | inactive: 0.068 | inactive: -0.088 | inactive: 0.001 | inactive: -0.072 | inactive: -0.083 | inactive: -0.02 | inactive: -0.027 | inactive: -0.021
GTSF1 (UniProt Q8WW33) | inactive: 0.028 | inactive: -0.033 | inactive: 0.037 | inactive: 0.03 | inactive: -0.092 | inactive: 0.041 | inactive: 0.021 | inactive: 0.033 | inactive: 0.03 | inactive: -0.027 | inactive: 0.035 | inactive: -0.003 | inactive: 0.022 | inactive: -0.016 | inactive: -0.107 | inactive: 0.007 | inactive: 0.009 | inactive: -0.031 | inactive: -0.036 | inactive: 0.001
GTF3C4 (UniProt Q9UKN8) | inactive: -0.017 | inactive: -0.013 | inactive: -0.014 | inactive: 0.027 | inactive: 0.008 | inactive: -0.063 | inactive: 0.034 | inactive: 0.02 | inactive: -0.045 | inactive: 0.034 | inactive: 0.014 | inactive: -0.019 | inactive: -0.042 | inactive: -0.015 | inactive: 0.008 | inactive: 0.003 | inactive: -0.005 | inactive: 0.01 | inactive: 0.006 | inactive: -0.012
HAT1 (UniProt O14929) | inactive: -0.001 | inactive: 0.008 | inactive: 0.003 | inactive: -0.017 | inactive: 0.012 | inactive: -0.004 | inactive: -0.052 | inactive: 0.017 | inactive: -0.016 | inactive: 0.064 | inactive: -0.009 | inactive: 0.033 | inactive: 0.001 | inactive: 0.027 | inactive: 0.01 | inactive: -0.041 | inactive: -0.007 | inactive: 0.008 | inactive: 0.004 | inactive: -0.015
HDAC8 (UniProt Q9BY41) | inactive: 0.013 | inactive: 0.018 | inactive: -0.047 | inactive: -0.081 | inactive: 0.093 | inactive: 0.005 | inactive: 0.063 | inactive: 0.045 | inactive: -0.017 | inactive: 0.152 | inactive: -0.043 | inactive: 0.017 | inactive: -0.039 | inactive: -0.01 | inactive: -0.014 |  | inactive: 0.1 | inactive: 0.018 | inactive: -0.005 | inactive: -0.044
GYPA (UniProt P02724) | inactive: 0.074 | inactive: -0.01 | inactive: 0.017 | active: 0.528 | inactive: 0.013 | inactive: -0.197 | inactive: -0.02 | inactive: -0.033 | inactive: 0.229 | inactive: -0.234 |  |  | inactive: 0.097 |  | inactive: 0.045 | inactive: -0.062 |  | inactive: 0.026 | inactive: -0.047 | inactive: -0.024
GTF2E2 (UniProt P29084) | inactive: 0.033 | inactive: -0.005 | inactive: 0.006 | inactive: 0.02 | inactive: -0.008 | inactive: 0.006 | inactive: 0.005 | inactive: 0.022 | inactive: -0.085 | inactive: 0.014 | inactive: -0.019 | inactive: -0.01 | inactive: -0.005 | inactive: -0.025 | inactive: 0.024 | inactive: -0.056 | inactive: 0.048 | inactive: 0 | inactive: -0.037 | inactive: 0.033
GSK3A (UniProt P49840) | inactive: -0.026 | inactive: 0.207 | inactive: 0.069 | inactive: -0.002 | inactive: 0.016 | active: 0.641 | inactive: -0.017 | inactive: 0.002 | inactive: 0.008 | inactive: -0.02 | inactive: 0.026 | inactive: 0.425 | inactive: 0.021 | active: 0.562 | inactive: 0.048 | inactive: -0.009 | inactive: -0.008 | inactive: -0.024 | inactive: 0.099 | inactive: -0.006
H2AFY (UniProt O75367) | inactive: -0.021 | inactive: 0.036 | inactive: 0.051 | inactive: -0.135 | inactive: 0.01 | inactive: 0.084 | inactive: -0.108 | inactive: -0.138 | inactive: -0.011 | inactive: 0.049 | inactive: 0.013 | inactive: 0.003 | inactive: -0.087 | inactive: -0.003 | inactive: 0.005 | inactive: -0.099 | inactive: 0.005 | inactive: 0.058 | inactive: 0.001 | inactive: -0.034
GTF2H3 (UniProt Q13889) | inactive: 0.045 | inactive: -0.073 | inactive: -0.072 | inactive: -0.068 | inactive: -0.007 | inactive: 0.004 | inactive: -0.025 | inactive: -0.015 | inactive: 0.001 | inactive: 0.037 | inactive: 0.012 | inactive: 0.002 | inactive: 0.001 | inactive: 0.042 | inactive: 0.052 | inactive: -0.04 | inactive: -0.049 | inactive: 0.063 | inactive: 0.016 | inactive: 0.033

Fetched one by one from above (2):
Target | log2 fold change (lapatinib) | log2 fold change (pictilisib) | log2 fold change (crizotinib) | log2 fold change [1] | log2 fold change (duvelisib) | log2 fold change (gandotinib) | log2 fold change (tozasertib) | log2 fold change (doramapimod) | log2 fold change (bafetinib) | log2 fold change [2] | log2 fold change (nilotinib) | log2 fold change [3] | log2 fold change (dasatinib) | log2 fold change [4] | log2 fold change [5] | log2 fold change (quisinostat) | log2 fold change (tipifarnib) | log2 fold change [6] | log2 fold change [7] | log2 fold change [8]
GTF3C6 (UniProt Q969F1) | inactive: 0.07 | inactive: 0.002 | inactive: -0.007 | inactive: 0.126 | inactive: -0.002 | inactive: -0.035 | inactive: -0.013 | inactive: -0.03 | inactive: 0.223 | inactive: -0.041 | inactive: -0.034 | inactive: 0.014 | inactive: 0.068 | inactive: -0.088 | inactive: 0.001 | inactive: -0.072 | inactive: -0.083 | inactive: -0.02 | inactive: -0.027 | inactive: -0.021
GYPA (UniProt P02724) | inactive: 0.074 | inactive: -0.01 | inactive: 0.017 | active: 0.528 | inactive: 0.013 | inactive: -0.197 | inactive: -0.02 | inactive: -0.033 | inactive: 0.229 | inactive: -0.234 |  |  | inactive: 0.097 |  | inactive: 0.045 | inactive: -0.062 |  | inactive: 0.026 | inactive: -0.047 | inactive: -0.024
